Earlier results as cited in US20110293714A1, “PHARMACEUTICAL COMPOSITIONS SUITABLE FOR ORAL ADMINISTRATION OF DERIVATIZED INSULIN PEPTIDES” (priority 2008, published 2011).
At least one structure is not confirmed: it was looked up by name or label, or the drawing left a doubt.

Details: 293.2 Kelvin; static electric fields or relatively low frequencies

In the case of `OCC(O)CO` [Propanetriol [Glycerol], Propanetriol], the “Dielectric constant, ∈*” value is listed as 46.53.
